In the supplement of paper PMC10849652:
The other results are listed elsewhere or left out.

Sequences of proteins named here, by UniProt entry; tags and fusion partners are left off. A change or cut given only in a name is not applied to a line headed by its entry.
UniProt Q13618, whole entry, looked up: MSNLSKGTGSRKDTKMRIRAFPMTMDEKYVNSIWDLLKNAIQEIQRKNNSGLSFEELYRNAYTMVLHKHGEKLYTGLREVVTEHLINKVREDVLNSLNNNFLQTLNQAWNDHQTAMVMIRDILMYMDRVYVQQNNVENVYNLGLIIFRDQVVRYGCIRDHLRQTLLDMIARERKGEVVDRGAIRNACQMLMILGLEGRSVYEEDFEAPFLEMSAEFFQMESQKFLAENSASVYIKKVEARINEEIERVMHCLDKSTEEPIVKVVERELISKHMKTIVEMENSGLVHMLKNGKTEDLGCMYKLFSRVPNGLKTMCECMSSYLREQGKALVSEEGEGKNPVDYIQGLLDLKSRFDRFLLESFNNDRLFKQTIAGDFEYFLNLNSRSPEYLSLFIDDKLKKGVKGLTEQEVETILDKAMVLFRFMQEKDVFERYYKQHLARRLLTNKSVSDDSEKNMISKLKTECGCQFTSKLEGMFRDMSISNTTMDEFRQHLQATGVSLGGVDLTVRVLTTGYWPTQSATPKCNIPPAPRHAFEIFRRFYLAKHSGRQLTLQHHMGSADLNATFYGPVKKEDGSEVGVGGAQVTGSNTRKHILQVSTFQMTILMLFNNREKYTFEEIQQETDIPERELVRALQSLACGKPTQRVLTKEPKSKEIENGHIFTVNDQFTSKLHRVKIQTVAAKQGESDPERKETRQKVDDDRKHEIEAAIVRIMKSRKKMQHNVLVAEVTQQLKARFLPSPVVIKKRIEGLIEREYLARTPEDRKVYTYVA
UniProt Q9H0L4: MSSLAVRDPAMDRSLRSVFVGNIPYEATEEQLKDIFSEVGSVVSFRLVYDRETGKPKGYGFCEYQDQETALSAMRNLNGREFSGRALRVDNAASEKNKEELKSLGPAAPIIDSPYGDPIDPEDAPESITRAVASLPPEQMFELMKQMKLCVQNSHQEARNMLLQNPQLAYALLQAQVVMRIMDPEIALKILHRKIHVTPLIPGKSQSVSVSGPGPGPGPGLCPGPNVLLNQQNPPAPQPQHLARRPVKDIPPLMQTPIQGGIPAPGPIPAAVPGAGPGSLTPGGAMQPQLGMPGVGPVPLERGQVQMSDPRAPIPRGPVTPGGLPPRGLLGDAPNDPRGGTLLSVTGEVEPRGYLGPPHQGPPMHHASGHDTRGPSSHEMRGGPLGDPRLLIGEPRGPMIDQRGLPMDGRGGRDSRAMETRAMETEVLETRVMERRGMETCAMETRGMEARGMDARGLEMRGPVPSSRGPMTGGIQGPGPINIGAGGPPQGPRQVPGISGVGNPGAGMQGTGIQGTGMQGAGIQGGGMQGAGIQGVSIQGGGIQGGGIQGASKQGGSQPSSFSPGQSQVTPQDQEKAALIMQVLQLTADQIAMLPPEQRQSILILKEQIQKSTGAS
UniProt Q8TB03: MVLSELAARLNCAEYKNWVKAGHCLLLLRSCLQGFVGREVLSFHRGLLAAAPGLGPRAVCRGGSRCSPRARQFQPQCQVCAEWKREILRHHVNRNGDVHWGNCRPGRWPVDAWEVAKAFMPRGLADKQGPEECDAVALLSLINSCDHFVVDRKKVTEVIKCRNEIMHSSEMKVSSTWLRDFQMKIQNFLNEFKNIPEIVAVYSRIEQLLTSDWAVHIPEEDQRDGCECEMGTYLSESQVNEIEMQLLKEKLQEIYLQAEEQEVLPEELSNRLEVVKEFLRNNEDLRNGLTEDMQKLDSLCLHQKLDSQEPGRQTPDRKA
UniProt Q96EP5: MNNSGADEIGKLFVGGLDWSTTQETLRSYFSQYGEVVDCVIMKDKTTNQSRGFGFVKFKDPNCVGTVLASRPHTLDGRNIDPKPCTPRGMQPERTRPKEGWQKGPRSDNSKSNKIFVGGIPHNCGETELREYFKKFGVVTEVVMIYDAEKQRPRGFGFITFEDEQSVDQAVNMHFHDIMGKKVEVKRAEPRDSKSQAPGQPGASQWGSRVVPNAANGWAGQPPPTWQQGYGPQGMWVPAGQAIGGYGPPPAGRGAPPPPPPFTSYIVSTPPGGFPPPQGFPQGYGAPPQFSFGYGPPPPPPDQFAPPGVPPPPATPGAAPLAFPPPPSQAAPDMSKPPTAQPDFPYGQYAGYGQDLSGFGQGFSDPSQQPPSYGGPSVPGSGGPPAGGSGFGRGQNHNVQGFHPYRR
UniProt P17812: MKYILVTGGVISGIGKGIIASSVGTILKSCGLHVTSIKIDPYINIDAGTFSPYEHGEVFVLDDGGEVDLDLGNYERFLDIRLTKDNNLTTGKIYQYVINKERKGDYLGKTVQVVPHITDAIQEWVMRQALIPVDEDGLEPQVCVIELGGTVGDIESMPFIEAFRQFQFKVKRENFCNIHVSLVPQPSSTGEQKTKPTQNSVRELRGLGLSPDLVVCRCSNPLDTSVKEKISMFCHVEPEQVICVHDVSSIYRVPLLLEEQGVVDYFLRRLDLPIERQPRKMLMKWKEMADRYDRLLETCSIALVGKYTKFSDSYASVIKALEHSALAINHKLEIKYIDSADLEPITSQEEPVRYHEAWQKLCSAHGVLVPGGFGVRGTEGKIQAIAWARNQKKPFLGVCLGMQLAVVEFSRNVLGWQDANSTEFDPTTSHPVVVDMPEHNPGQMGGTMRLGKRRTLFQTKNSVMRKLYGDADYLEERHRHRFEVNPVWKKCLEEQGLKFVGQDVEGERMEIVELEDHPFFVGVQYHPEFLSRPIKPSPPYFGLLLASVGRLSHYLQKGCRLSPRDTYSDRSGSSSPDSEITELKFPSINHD
UniProt Q9NRF8: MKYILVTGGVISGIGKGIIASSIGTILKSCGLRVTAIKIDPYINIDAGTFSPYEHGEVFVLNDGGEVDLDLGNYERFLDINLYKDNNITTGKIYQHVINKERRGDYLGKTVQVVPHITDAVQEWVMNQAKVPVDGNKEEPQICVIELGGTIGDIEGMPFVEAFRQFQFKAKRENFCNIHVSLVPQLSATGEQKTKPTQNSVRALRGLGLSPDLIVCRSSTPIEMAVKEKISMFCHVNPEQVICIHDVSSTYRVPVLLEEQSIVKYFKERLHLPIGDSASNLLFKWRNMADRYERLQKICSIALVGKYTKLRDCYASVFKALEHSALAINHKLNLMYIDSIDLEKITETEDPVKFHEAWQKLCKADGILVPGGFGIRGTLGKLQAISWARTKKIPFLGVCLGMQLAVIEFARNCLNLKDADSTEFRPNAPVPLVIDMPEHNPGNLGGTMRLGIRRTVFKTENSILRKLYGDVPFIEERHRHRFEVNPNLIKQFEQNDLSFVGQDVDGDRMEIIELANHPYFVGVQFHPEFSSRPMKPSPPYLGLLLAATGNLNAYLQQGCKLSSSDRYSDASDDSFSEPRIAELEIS
UniProt Q6PI48: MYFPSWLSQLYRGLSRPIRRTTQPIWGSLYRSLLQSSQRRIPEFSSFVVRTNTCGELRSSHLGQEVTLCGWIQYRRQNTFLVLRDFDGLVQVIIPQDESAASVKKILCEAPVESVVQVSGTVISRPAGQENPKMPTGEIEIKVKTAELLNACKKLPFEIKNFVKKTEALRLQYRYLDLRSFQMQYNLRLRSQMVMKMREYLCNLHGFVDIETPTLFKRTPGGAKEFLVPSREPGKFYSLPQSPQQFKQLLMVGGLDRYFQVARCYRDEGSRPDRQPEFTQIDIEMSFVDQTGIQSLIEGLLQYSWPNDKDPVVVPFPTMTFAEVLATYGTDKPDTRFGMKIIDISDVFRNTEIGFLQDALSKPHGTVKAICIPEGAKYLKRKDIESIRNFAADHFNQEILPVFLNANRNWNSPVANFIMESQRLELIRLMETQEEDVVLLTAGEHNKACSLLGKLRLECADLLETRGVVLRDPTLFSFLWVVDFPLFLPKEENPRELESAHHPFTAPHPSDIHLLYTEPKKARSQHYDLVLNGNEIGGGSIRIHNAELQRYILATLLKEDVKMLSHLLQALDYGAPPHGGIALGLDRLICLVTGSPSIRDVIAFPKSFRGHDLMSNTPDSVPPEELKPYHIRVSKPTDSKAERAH
UniProt Q13619, whole entry, looked up: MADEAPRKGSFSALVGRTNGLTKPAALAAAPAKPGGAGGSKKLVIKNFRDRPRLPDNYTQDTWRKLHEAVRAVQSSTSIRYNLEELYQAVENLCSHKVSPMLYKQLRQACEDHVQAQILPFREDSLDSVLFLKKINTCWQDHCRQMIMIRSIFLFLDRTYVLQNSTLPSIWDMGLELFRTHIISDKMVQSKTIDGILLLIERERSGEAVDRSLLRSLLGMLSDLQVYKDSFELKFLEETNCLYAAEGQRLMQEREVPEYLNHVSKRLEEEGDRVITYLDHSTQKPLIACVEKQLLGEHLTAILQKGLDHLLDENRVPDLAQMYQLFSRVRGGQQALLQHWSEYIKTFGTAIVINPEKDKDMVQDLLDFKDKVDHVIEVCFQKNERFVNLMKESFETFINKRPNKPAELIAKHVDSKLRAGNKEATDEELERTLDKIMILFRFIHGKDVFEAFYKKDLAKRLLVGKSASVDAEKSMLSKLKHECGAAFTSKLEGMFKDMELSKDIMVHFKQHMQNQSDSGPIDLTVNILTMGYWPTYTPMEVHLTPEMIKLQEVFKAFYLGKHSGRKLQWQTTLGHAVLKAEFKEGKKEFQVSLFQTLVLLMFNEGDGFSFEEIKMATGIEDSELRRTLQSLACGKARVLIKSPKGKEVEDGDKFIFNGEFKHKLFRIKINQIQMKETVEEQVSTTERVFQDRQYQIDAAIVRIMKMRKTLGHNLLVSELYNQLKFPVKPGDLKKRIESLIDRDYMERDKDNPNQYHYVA
UniProt Q2VPK5: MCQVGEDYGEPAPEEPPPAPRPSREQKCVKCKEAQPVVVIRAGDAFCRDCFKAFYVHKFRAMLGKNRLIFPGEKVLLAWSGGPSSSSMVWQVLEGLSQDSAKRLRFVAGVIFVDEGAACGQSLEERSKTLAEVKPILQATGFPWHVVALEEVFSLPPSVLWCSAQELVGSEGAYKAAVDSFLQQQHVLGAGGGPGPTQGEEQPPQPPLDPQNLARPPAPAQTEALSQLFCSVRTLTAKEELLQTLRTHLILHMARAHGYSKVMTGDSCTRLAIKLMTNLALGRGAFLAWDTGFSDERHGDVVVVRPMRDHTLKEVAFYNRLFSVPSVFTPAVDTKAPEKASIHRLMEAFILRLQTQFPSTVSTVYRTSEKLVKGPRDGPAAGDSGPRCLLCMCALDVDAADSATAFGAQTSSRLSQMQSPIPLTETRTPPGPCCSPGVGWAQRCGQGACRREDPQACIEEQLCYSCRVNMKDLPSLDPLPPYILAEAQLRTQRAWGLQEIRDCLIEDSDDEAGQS
UniProt P51397: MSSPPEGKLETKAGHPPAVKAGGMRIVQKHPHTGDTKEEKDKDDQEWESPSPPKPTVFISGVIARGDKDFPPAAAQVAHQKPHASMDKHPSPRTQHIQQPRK
UniProt Q9P013: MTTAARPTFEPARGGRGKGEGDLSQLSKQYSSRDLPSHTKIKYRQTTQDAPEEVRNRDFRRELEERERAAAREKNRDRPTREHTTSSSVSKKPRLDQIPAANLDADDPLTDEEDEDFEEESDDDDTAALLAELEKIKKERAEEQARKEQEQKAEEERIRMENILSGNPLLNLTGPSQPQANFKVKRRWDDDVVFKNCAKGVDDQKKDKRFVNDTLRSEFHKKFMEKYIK
UniProt P08574: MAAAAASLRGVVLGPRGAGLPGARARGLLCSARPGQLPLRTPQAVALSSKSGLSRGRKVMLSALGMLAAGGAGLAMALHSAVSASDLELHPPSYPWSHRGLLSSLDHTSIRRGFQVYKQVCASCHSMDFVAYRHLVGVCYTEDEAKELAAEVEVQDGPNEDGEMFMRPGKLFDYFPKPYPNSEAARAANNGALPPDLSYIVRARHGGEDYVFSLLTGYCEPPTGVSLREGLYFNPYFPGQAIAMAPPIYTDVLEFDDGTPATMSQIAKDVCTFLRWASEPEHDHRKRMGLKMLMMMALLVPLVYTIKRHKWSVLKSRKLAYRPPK
UniProt P99999: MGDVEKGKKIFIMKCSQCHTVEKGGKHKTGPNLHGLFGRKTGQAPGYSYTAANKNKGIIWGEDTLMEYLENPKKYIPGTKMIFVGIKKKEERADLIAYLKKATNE
UniProt Q5TAQ9: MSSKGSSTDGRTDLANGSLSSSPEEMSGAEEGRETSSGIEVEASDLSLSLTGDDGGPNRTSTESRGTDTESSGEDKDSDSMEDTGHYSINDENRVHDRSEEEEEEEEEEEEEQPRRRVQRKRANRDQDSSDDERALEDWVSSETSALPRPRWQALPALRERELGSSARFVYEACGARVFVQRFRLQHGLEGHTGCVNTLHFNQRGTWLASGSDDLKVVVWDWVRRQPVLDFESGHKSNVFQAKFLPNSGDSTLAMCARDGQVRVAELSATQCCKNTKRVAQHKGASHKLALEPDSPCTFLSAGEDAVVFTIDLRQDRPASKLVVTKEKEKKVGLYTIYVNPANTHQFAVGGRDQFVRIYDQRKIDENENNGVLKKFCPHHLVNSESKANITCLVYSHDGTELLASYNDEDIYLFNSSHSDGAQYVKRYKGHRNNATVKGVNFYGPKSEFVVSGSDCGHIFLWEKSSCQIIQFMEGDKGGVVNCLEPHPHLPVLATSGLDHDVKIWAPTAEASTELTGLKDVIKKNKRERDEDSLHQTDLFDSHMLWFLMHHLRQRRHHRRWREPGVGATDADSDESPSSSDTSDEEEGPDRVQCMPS

How the values were obtained:
Test in all cases: log2 fold change, soluble protein after heating vs DMSO (PISA); higher = thermal stabilisation; K562 cells, 10 uM, 30 min; active = over 0.2 and 3.5 SD of the protein, either way, in both replicates (recomputed)
[1] = compound: CS(=O)(=O)c1ccc(-c2cnc(N)c(C(=O)Nc3ccccc3)n2)cc1
Method in brief: (§1)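 K562 cells at 2×10^6 cells/mL were exposed to 10 μM compound for 30 min, then aliquots were heated for 3 min across 48°C-58°C, pooled, and extracted in PBS containing 0.5% NP-40 at 4°C. The supernatant after 21,000xg for 90 min was taken as soluble protein and measured by TMTpro 16plex LC-MS/MS with channel sums equalised. Thermal stability is reported relative to control samples, with values from duplicates. Fold changes are given on a log2 scale.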

crizotinib = compound: C[C@@H](Oc1cc(-c2cnn(C3CCNCC3)c2)cnc1N)c1c(Cl)ccc(F)c1Cl [crizotinib]
Method in brief: as §1

[2] = compound: C[C@@H]1COCCN1C2=NC(=NC(=C2)C3(CC3)S(=O)(=O)C)C4=C5C=CNC5=CC=C4
Method in brief: as §1

[3] = compound: C[C@H](C1=CC=C(C=C1)C(=O)NC2=C3C=CNC3=NC=C2)N
Method in brief: as §1

duvelisib = compound: C[C@H](Nc1ncnc2nc[nH]c12)c1cc2cccc(Cl)c2c(=O)n1-c1ccccc1 [duvelisib]
Method in brief: as §1

gandotinib = compound: Cc1cc(Nc2cc(CN3CCOCC3)c3nc(C)c(Cc4ccc(Cl)cc4F)n3n2)n[nH]1 [gandotinib]
Method in brief: as §1

tozasertib = compound: Cc1cc(Nc2cc(N3CCN(C)CC3)nc(Sc3ccc(NC(=O)C4CC4)cc3)n2)n[nH]1 [tozasertib]
Method in brief: as §1

[4] = compound: Cc1cc(SCc2sc(-c3ccc(C(F)(F)F)cc3)nc2C)ccc1OCC(=O)O
Method in brief: as §1

doramapimod = compound: Cc1ccc(-n2nc(C(C)(C)C)cc2NC(=O)Nc2ccc(OCCN3CCOCC3)c3ccccc23)cc1 [doramapimod]
Method in brief: as §1

ispinesib = compound: Cc1ccc(C(=O)N(CCCN)[C@@H](c2nc3cc(Cl)ccc3c(=O)n2Cc2ccccc2)C(C)C)cc1 [ispinesib]
Method in brief: as §1

Measured: log2 fold change

CUL3 (UniProt Q13618)
inactive: [1] 0.016 | crizotinib 0.008 | [2] 0.062 | [3] -0.07 | duvelisib 0.013 | gandotinib -0.03 | tozasertib -0.021 | [4] 0.002 | doramapimod -0.014 | ispinesib 0.06

DCAF11 (UniProt Q8TEB1)
inactive: [1] 0.021 | crizotinib 0.001 | [2] 0.047 | [3] -0.044 | duvelisib 0.109 | gandotinib -0.016 | tozasertib -0.007 | [4] 0.017 | doramapimod -0.006 | ispinesib -0.061

CSTF2T (UniProt Q9H0L4)
inactive: [1] -0.002 | crizotinib 0.048 | [2] 0.148 | [3] 0.059 | duvelisib 0.028 | gandotinib -0.005 | tozasertib 0.036 | [4] -0.057 | doramapimod 0.022 | ispinesib 0.046

CUL4B (UniProt K4DI93)
inactive: [1] 0.031 | crizotinib 0.029 | [2] 0.072 | [3] -0.135 | duvelisib 0.003 | gandotinib -0.064 | tozasertib 0.018 | [4] 0.013 | doramapimod -0.044 | ispinesib 0.094

CXorf38 (UniProt Q8TB03)
inactive: [1] 0.003 | crizotinib -0.025 | [2] 0.039 | [3] -0.049 | duvelisib 0.018 | gandotinib 0.001 | tozasertib 0.002 | [4] 0.011 | doramapimod -0.001 | ispinesib 0.019

CT45A5 (UniProt P0DMU8)
inactive: [1] -0.058 | crizotinib 0.028 | [2] -0.2 | [3] 0.127 | duvelisib -0.157 | gandotinib 0.052 | tozasertib 0.055 | [4] -0.038 | doramapimod 0.073 | ispinesib 0.046

DAZAP1 (UniProt Q96EP5)
inactive: [1] -0.057 | crizotinib 0.014 | [2] -0.045 | [3] 0.036 | duvelisib -0.016 | gandotinib -0.041 | tozasertib -0.048 | [4] -0.006 | doramapimod -0.011 | ispinesib -0.01

CWF19L1 (UniProt Q69YN2)
inactive: [1] -0.03 | crizotinib 0.062 | [2] 0.078 | [3] -0.003 | duvelisib 0.033 | gandotinib 0.049 | tozasertib -0.001 | [4] -0.001 | doramapimod 0 | ispinesib 0.063

CUSTOS (UniProt Q96C57)
inactive: [1] -0.038 | crizotinib 0.018 | [2] -0.081 | [3] -0.04 | duvelisib 0.05 | gandotinib -0.001 | tozasertib 0.028 | [4] -0.045 | doramapimod 0.029 | ispinesib 0.062

DAGLB (UniProt Q8NCG7)
inactive: [1] -0.049 | crizotinib 0.008 | [2] 0.023 | [3] -0.072 | duvelisib 0.016 | gandotinib 0.068 | tozasertib 0.046 | [4] 0.035 | doramapimod -0.015 | ispinesib 0.053

CTPS1 isoform 2 (UniProt P17812)
inactive: [1] -0.368

CUL1 (UniProt Q13616)
inactive: [1] 0.003 | crizotinib 0.074 | [2] 0.018 | [3] -0.087 | duvelisib 0.011 | gandotinib 0.034 | tozasertib -0.002 | [4] -0.02 | doramapimod -0.051 | ispinesib 0.098

CTTN (UniProt Q14247)
inactive: [1] 0.011 | crizotinib 0.02 | [2] 0.043 | [3] -0.076 | duvelisib 0.019 | gandotinib 0.006 | tozasertib 0.022 | [4] -0.046 | doramapimod -0.001 | ispinesib 0.04

DCAF7 (UniProt P61962)
inactive: [1] -0.038 | crizotinib 0.017 | [2] 0.038 | [3] 0.112 | duvelisib 0.028 | gandotinib -0.01 | tozasertib -0.061 | [4] 0.041 | doramapimod -0.011 | ispinesib 0.006

CTPS2 (UniProt Q9NRF8)
inactive: [1] 0.019 | crizotinib 0.031 | [2] 0.028 | [3] -0.047 | duvelisib 0.056 | gandotinib -0.007 | tozasertib -0.03 | [4] -0.021 | doramapimod -0.037 | ispinesib 0.059

CYB5R3 isoform 3 (UniProt P00387)
inactive: [1] 0.032 | crizotinib 0.031 | [2] 0.017 | [3] -0.07 | duvelisib 0.055 | gandotinib -0.012 | tozasertib -0.023 | [4] -0.004 | doramapimod -0.059 | ispinesib 0.079

DCTN6 (UniProt O00399)
inactive: [1] 0.024 | crizotinib 0.067 | [2] -0.029 | [3] -0.029 | duvelisib -0.046 | gandotinib 0.012 | tozasertib -0.032 | [4] -0.006 | doramapimod -0.02 | ispinesib 0.188

DARS2 (UniProt Q6PI48)
inactive: [1] -0.019 | crizotinib 0.049 | [2] -0.033 | [3] -0.005 | duvelisib -0.007 | gandotinib -0.024 | tozasertib -0.003 | [4] -0.007 | doramapimod -0.025 | ispinesib 0.014

CSPP1 (UniProt Q1MSJ5)
inactive: [1] 0.027 | crizotinib -0.053 | [2] -0.021 | [3] 0.102 | duvelisib -0.047 | gandotinib -0.027 | tozasertib -0.06 | [4] -0.116 | doramapimod 0.068 | ispinesib -0.101

CUL4A (UniProt Q13619)
inactive: [1] 0.068 | crizotinib -0.008 | [2] 0.018 | [3] -0.057 | duvelisib 0.038 | gandotinib -0.044 | tozasertib 0.01 | [4] 0.017 | doramapimod -0.012 | ispinesib 0.049

CTIF isoform 2 (UniProt O43310)
inactive: [1] 0.003 | crizotinib -0.076 | [2] -0.049 | [3] -0.067 | duvelisib 0.062 | gandotinib 0.018 | tozasertib 0.013 | [4] -0.046 | doramapimod 0.06 | ispinesib 0.097

Seven neighbouring records out of the list so far:
CTTN (UniProt Q14247)
inactive: [1] 0.011 | crizotinib 0.02 | [2] 0.043 | [3] -0.076 | duvelisib 0.019 | gandotinib 0.006 | tozasertib 0.022 | [4] -0.046 | doramapimod -0.001 | ispinesib 0.04

DCAF7 (UniProt P61962)
inactive: [1] -0.038 | crizotinib 0.017 | [2] 0.038 | [3] 0.112 | duvelisib 0.028 | gandotinib -0.01 | tozasertib -0.061 | [4] 0.041 | doramapimod -0.011 | ispinesib 0.006

CTPS2 (UniProt Q9NRF8)
inactive: [1] 0.019 | crizotinib 0.031 | [2] 0.028 | [3] -0.047 | duvelisib 0.056 | gandotinib -0.007 | tozasertib -0.03 | [4] -0.021 | doramapimod -0.037 | ispinesib 0.059

CYB5R3 isoform 3 (UniProt P00387)
inactive: [1] 0.032 | crizotinib 0.031 | [2] 0.017 | [3] -0.07 | duvelisib 0.055 | gandotinib -0.012 | tozasertib -0.023 | [4] -0.004 | doramapimod -0.059 | ispinesib 0.079

DCTN6 (UniProt O00399)
inactive: [1] 0.024 | crizotinib 0.067 | [2] -0.029 | [3] -0.029 | duvelisib -0.046 | gandotinib 0.012 | tozasertib -0.032 | [4] -0.006 | doramapimod -0.02 | ispinesib 0.188

DARS2 (UniProt Q6PI48)
inactive: [1] -0.019 | crizotinib 0.049 | [2] -0.033 | [3] -0.005 | duvelisib -0.007 | gandotinib -0.024 | tozasertib -0.003 | [4] -0.007 | doramapimod -0.025 | ispinesib 0.014

CSPP1 (UniProt Q1MSJ5)
inactive: [1] 0.027 | crizotinib -0.053 | [2] -0.021 | [3] 0.102 | duvelisib -0.047 | gandotinib -0.027 | tozasertib -0.06 | [4] -0.116 | doramapimod 0.068 | ispinesib -0.101

Carrying on:

CTU2 (UniProt Q2VPK5)
inactive: [1] 0.032 | crizotinib -0.07 | [2] 0.105 | [3] -0.043 | duvelisib -0.016 | gandotinib -0.089 | tozasertib 0.004 | [4] 0.023 | doramapimod 0.088 | ispinesib -0.036

DAP (UniProt P51397)
inactive: [1] 0.04 | crizotinib 0.02 | [2] -0.002 | [3] -0.05 | duvelisib 0.04 | gandotinib 0.05 | tozasertib -0.023 | [4] -0.033 | doramapimod 0.051 | ispinesib 0.05

CUTC (UniProt Q9NTM9)
inactive: [1] 0.036 | crizotinib -0.005 | [2] 0.011 | [3] -0.003 | duvelisib 0.022 | gandotinib -0.053 | tozasertib -0.024 | [4] -0.018 | doramapimod -0.032 | ispinesib 0.065

CT47A1 (UniProt Q5JQC4)
inactive: [1] 0.098 | crizotinib -0.136 | [2] -0.104 | [3] 0.069 | duvelisib 0.067 | gandotinib 0.015 | tozasertib -0.097 | [4] 0.006 | doramapimod 0.061 | ispinesib 0.181

CYHR1 (UniProt E9PJD7)
inactive: [1] 0.035 | crizotinib 0.001 | [2] 0.111 | [3] -0.015 | duvelisib -0.076 | gandotinib -0.064 | tozasertib -0.007 | [4] -0.056 | doramapimod -0.045 | ispinesib 0.052

CWC15 (UniProt Q9P013)
inactive: [1] -0.001 | crizotinib 0.094 | [2] 0.045 | [3] 0.007 | duvelisib 0.004 | gandotinib 0.022 | tozasertib -0.089 | [4] -0.085 | doramapimod 0.01 | ispinesib -0.023

CYC1 (UniProt P08574)
inactive: [1] -0.008 | crizotinib 0.054 | [2] 0.048 | [3] -0.058 | duvelisib -0.034 | gandotinib -0.049 | tozasertib 0.002 | [4] 0.021 | doramapimod -0.114 | ispinesib 0.015

CYCS (UniProt P99999)
inactive: [1] -0.025 | crizotinib 0.089 | [2] 0.03 | [3] -0.043 | duvelisib -0.011 | gandotinib 0.036 | tozasertib -0.014 | [4] -0.095 | doramapimod -0.013 | ispinesib 0.006

DCAF8 (UniProt Q5TAQ9)
inactive: [1] 0.055 | crizotinib 0.077 | [2] 0.056 | [3] -0.198 | duvelisib 0.04 | gandotinib -0.036 | tozasertib 0.054 | [4] -0.021 | doramapimod 0.002 | ispinesib 0.069
